Experimental data from the supplement of paper PMC10849652.
This is one part of the list.

Chains of the proteins cited; added tags and fusions are not shown. Lines headed by an entry give the natural chain unless they say otherwise; changes in a name come on top.
UniProt F5GZS6: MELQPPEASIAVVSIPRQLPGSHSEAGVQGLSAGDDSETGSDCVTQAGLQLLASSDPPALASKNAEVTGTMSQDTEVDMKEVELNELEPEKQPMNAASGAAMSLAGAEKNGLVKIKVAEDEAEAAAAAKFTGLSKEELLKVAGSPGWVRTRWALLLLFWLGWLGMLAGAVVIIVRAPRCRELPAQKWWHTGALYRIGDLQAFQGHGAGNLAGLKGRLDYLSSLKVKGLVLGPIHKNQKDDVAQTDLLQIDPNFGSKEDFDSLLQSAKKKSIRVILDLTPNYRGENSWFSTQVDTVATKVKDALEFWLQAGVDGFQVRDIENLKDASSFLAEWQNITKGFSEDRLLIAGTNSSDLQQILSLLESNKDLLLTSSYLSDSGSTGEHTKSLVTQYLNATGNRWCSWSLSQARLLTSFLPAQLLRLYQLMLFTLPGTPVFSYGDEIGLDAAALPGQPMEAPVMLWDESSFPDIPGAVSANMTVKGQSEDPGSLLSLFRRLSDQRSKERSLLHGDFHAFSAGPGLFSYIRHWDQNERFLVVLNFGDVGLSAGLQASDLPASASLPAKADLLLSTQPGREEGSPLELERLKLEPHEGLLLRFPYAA
UniProt P09131: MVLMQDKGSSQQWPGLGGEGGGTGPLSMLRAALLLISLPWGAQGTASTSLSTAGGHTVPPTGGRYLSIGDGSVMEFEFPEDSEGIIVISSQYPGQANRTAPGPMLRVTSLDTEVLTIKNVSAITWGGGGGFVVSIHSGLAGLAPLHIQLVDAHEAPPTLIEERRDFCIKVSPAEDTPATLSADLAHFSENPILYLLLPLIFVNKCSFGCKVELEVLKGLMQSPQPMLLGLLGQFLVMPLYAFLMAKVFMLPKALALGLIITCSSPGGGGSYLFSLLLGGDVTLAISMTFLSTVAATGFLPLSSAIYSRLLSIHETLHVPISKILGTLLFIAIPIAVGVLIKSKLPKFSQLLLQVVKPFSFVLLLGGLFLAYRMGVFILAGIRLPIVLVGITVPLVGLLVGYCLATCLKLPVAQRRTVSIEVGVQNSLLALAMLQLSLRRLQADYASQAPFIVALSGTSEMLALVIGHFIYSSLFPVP
UniProt Q96GZ6: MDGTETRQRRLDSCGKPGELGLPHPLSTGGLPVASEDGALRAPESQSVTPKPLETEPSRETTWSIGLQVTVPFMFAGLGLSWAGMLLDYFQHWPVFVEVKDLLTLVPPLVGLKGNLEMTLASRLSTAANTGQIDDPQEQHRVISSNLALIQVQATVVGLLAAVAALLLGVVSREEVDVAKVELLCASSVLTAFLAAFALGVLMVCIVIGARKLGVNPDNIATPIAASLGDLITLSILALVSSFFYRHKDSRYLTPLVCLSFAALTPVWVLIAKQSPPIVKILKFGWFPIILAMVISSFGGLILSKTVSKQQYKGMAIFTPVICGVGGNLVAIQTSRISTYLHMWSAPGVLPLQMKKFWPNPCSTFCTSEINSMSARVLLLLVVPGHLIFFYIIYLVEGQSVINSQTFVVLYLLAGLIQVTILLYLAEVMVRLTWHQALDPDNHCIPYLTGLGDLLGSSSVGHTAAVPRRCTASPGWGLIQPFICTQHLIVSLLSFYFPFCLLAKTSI
UniProt Q6YBV0: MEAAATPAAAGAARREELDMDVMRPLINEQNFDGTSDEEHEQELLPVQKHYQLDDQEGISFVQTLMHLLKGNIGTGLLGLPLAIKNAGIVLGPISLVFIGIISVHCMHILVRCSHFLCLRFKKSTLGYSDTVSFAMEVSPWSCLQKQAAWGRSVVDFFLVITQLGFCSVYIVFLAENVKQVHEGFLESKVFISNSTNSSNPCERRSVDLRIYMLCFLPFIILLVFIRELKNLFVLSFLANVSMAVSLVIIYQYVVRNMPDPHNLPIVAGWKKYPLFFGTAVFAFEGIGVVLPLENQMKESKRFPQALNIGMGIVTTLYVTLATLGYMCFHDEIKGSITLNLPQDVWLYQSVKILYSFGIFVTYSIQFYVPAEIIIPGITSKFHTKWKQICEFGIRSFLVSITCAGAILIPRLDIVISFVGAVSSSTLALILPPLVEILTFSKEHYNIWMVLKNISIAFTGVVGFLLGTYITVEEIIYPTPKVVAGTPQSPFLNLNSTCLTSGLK
UniProt P43003, whole entry, looked up: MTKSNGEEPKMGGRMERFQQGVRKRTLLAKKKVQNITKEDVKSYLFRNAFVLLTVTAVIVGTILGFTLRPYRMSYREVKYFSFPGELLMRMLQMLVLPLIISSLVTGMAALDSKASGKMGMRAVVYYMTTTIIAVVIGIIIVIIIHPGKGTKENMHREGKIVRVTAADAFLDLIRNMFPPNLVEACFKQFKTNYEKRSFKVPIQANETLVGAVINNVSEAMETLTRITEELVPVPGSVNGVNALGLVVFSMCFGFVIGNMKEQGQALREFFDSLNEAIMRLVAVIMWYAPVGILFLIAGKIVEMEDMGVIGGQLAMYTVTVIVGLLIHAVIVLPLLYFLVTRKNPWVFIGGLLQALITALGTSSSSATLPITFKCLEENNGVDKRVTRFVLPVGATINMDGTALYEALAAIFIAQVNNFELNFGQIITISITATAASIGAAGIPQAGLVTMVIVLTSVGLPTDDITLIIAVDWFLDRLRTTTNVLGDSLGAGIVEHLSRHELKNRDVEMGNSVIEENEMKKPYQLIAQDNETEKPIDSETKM
UniProt Q6ZP29: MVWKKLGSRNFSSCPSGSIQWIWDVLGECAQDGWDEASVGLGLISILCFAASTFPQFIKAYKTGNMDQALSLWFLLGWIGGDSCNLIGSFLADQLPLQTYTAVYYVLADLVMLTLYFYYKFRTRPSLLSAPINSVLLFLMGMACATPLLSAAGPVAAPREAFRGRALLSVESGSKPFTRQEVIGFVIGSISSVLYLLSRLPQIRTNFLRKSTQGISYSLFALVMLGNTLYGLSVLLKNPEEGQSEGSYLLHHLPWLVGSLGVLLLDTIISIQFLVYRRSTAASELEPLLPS
UniProt O15431: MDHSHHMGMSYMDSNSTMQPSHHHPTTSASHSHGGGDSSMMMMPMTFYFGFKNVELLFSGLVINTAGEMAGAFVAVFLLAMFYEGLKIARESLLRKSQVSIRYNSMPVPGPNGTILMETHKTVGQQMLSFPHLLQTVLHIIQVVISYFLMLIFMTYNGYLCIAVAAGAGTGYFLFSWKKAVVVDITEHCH
UniProt Q9Y2P4: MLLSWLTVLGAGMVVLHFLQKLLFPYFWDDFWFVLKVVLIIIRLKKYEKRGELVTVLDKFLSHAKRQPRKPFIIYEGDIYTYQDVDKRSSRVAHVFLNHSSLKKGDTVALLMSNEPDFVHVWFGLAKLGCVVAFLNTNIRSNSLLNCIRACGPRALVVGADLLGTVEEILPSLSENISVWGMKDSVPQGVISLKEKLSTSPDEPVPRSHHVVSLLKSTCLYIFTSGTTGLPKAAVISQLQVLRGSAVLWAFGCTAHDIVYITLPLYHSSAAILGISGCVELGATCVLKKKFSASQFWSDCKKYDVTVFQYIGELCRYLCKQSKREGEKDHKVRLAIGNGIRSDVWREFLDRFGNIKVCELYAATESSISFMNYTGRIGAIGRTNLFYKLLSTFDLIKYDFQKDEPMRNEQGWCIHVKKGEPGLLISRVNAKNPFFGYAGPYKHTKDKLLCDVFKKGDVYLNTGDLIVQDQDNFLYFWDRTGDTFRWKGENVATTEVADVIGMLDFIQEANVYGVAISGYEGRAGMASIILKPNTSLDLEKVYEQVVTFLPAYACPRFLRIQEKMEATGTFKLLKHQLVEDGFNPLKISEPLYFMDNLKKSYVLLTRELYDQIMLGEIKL
UniProt Q9BRV3: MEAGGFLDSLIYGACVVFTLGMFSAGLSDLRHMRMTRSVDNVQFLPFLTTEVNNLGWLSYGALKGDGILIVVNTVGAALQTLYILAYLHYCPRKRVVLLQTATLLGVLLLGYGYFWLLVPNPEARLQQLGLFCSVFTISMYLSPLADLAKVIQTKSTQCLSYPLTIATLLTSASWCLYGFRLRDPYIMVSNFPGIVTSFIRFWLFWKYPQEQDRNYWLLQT
UniProt Q9HAB3: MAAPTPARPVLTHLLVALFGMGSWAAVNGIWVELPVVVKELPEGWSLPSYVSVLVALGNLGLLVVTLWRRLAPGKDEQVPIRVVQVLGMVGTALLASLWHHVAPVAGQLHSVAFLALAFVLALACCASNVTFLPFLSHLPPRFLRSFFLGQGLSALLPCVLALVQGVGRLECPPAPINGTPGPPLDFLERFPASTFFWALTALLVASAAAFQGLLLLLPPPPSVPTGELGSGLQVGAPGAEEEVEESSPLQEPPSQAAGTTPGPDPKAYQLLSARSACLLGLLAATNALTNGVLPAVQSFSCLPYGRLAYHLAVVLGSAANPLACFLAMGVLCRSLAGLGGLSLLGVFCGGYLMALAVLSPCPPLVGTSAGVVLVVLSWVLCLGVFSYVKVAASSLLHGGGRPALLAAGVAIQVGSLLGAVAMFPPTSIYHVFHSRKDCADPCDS
UniProt O95258: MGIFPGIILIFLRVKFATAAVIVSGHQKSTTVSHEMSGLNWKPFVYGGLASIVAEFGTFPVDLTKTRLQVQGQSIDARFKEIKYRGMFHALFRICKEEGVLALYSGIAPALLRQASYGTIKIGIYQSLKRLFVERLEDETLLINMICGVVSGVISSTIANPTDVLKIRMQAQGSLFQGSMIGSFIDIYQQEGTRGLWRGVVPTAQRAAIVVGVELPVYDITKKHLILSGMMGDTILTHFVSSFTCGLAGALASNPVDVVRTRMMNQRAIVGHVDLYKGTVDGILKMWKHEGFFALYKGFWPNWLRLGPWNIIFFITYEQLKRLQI
UniProt Q8N2U9: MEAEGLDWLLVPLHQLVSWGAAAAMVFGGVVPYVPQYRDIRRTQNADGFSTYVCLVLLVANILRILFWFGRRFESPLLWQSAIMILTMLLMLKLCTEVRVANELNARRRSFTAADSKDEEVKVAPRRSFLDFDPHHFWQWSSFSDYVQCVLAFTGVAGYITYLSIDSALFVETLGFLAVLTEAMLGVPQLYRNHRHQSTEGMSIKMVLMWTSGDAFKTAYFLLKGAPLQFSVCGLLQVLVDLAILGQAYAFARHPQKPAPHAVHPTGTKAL
UniProt Q0GE19: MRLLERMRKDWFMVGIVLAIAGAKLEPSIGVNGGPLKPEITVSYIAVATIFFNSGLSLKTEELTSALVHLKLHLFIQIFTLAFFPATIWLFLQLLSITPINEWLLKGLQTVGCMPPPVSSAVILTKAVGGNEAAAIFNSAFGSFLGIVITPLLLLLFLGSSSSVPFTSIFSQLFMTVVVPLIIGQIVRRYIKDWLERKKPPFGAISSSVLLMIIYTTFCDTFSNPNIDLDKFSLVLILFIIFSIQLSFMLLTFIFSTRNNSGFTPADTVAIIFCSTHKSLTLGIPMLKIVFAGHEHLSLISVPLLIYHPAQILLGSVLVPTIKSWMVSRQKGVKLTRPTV
UniProt Q8N697: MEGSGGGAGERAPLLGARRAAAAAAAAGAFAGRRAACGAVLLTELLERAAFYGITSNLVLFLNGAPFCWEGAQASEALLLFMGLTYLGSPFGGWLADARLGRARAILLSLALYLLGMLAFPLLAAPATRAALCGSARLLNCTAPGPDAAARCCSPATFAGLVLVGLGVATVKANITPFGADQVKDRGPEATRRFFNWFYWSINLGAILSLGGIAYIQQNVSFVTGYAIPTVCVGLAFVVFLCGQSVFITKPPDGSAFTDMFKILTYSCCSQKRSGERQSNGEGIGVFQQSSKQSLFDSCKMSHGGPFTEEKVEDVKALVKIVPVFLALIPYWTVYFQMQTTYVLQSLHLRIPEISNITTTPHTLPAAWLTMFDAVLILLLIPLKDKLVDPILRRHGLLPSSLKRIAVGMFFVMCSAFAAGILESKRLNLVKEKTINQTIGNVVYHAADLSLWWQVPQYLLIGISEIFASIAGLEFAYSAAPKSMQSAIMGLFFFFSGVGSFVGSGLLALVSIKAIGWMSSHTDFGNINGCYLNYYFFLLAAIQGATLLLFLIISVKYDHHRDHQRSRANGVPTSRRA
UniProt Q969S0: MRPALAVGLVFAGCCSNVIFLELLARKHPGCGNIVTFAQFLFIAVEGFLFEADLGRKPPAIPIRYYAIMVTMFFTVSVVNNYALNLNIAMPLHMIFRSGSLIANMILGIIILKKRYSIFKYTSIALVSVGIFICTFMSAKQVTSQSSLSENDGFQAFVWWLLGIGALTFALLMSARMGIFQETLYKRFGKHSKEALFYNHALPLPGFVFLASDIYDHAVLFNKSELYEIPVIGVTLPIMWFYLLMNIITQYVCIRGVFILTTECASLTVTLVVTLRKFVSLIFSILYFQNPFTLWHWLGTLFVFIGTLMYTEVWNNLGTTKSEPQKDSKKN
UniProt Q8N8R3: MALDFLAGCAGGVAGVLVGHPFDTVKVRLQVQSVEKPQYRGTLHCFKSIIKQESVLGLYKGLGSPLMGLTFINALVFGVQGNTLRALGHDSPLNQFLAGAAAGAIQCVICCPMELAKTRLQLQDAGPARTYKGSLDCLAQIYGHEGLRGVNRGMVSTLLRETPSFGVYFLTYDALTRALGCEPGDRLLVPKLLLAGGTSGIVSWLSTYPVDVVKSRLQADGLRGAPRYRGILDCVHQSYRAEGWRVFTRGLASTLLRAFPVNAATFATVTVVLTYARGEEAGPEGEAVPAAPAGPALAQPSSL

compound: CCCc1cc(C)[nH]c(=O)c1CNC(=O)c1cc(-c2ccnc(N3CCN(C)CC3)c2)cc2c1cnn2C(C)C; assay: log2 fold change, soluble protein after heating vs DMSO (PISA); higher = thermal stabilisation; K562 cells, 10 uM, 30 min; active = over 0.2 and 3.5 SD of the protein, either way, in both replicates (recomputed)
Summary of the method: (§1)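 Thermal stability values are relative to control samples and come from duplicates. They are expressed as log2 fold changes. For measurement, K562 cells (2×10^6 cells/mL) received 10 μM compound for 30 min, and aliquots were heated for 3 min over 48°C-58°C, pooled, and extracted at 4°C in PBS with 0.5% NP-40. Soluble protein, the supernatant after 21,000xg for 90 min, was quantified by TMTpro 16plex LC-MS/MS with equalised channel sums.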

log2 fold change, inactive:
SLC3A2 (UniProt F5GZS6) -0.061
SLC22A23 (UniProt A1A5C7) 0.009
SLC3A2 (UniProt F5H867) -0.077
SLC10A3 (UniProt P09131) -0.066
SLC41A3 isoform 9 (UniProt Q96GZ6) -0.254
SLC36A4 (UniProt Q6YBV0) -0.162
SLC26A2 (UniProt P50443) 0.047
SLC1A3 (UniProt P43003) -0.127
SLC66A1 (UniProt Q6ZP29) -0.506
SLC4A3 isoform 3 (UniProt P48751) -0.198
SLC31A1 (UniProt O15431) 0.043
SLC66A3 (UniProt Q8N755) 0.261
SLC27A6 (UniProt Q9Y2P4) 0.011
SLC50A1 (UniProt Q9BRV3) 0.143
SLC6A19 (UniProt Q695T7) -0.106
SLC52A2 (UniProt Q9HAB3) -0.021
SLC25A14 isoform 3 (UniProt O95258) -0.116
SLC66A2 (UniProt Q8N2U9) -0.04
SLC10A7 isoform 1 (UniProt Q0GE19) -0.109
SLC15A4 (UniProt Q8N697) 0.002
SLC36A1 (UniProt Q7Z2H8) 0.052
SLC35E1 (UniProt Q96K37) -0.146
SLC35B4 (UniProt Q969S0) -0.002

compound: CCN(CC)Cc1ccc2cc(COC(=O)Nc3ccc(C(=O)NO)cc3)ccc2c1 [givinostat]; assay: as above
Summary of the method: as §1

log2 fold change, inactive:
SLC35C2 isoform 3 (UniProt Q9NQQ7) 0.077
SLC3A2 (UniProt F5GZS6) 0.251
SLC22A23 (UniProt A1A5C7) -0.061
SLC3A2 (UniProt F5H867) -0.025
SLC35A5 (UniProt Q9BS91) 0.147
SLC10A3 (UniProt P09131) 0.073
SLC35C1 (UniProt Q96A29) -0.043
SLC41A3 isoform 9 (UniProt Q96GZ6) 0.007
SLC36A4 (UniProt Q6YBV0) 0.127
SLC25A29 (UniProt Q8N8R3) -0.172
SLC1A3 (UniProt P43003) -0.1
SLC66A1 (UniProt Q6ZP29) -0.018
SLC46A1 (UniProt Q96NT5) 0.011
SLC25A35 (UniProt Q3KQZ1) 0.034
SLC31A1 (UniProt O15431) 0.033
SLC35E3 (UniProt Q7Z769) 0.032
SLC66A3 (UniProt Q8N755) 0.074
SLC27A6 (UniProt Q9Y2P4) -0.005
SLC39A1 (UniProt Q9NY26) -0.157
SLC50A1 (UniProt Q9BRV3) 0.141
SLC52A2 (UniProt Q9HAB3) -0.005
SLC25A14 isoform 3 (UniProt O95258) 0.02
SLC23A2 (UniProt Q9UGH3) -0.068
SLC66A2 (UniProt Q8N2U9) -0.091
SLC10A7 isoform 1 (UniProt Q0GE19) -0.053
SLC15A4 (UniProt Q8N697) 0.045
SLC36A1 (UniProt Q7Z2H8) -0.032
SLC35E1 (UniProt Q96K37) -0.019
SLC35B4 (UniProt Q969S0) 0.077

compound: CCN(CCCOc1ccc2c(Nc3cc(CC(=O)Nc4cccc(F)c4)[nH]n3)ncnc2c1)CCOP(=O)(O)O [barasertib]; assay: as above
Summary of the method: as §1

log2 fold change, inactive:
SLC35C2 isoform 3 (UniProt Q9NQQ7) -0.062
SLC3A2 (UniProt F5GZS6) -0.014
SLC3A2 (UniProt F5H867) -0.019
SLC10A3 (UniProt P09131) 0
SLC35C1 (UniProt Q96A29) -0.008
SLC41A3 isoform 9 (UniProt Q96GZ6) -0.088
SLC22A5 isoform 3 (UniProt O76082) -0.21
SLC36A4 (UniProt Q6YBV0) 0.038
SLC1A3 (UniProt P43003) -0.01
SLC66A1 (UniProt Q6ZP29) 0.005
SLC36A1 (UniProt E5RG64) 0.14
SLC4A3 isoform 3 (UniProt P48751) 0.061
SLC31A1 (UniProt O15431) 0.031
SLC27A6 (UniProt Q9Y2P4) -0.101
SLC50A1 (UniProt Q9BRV3) 0.091
SLC26A11 (UniProt I3L0N9) 0.261
SLC52A2 (UniProt Q9HAB3) -0.027
SLC25A14 isoform 3 (UniProt O95258) 0
SLC23A2 (UniProt Q9UGH3) 0.596
SLC66A2 (UniProt Q8N2U9) 0.139
SLC10A7 isoform 1 (UniProt Q0GE19) -0.029
SLC25A28 (UniProt Q96A46) -0.065
SLC15A4 (UniProt Q8N697) -0.034
SLC35E1 (UniProt Q96K37) -0.038
SLC35B4 (UniProt Q969S0) -0.01
